From paper PMC6745524, “Diverse roles of TssA‐like proteins in the assembly of bacterial type VI secretion systems” (The EMBO Journal, 2019)
No constants are given. Whether binding was seen depends on the method and setting. In cells and extracts the contact can be indirect. A yes stands for co-enrichment or nearness to the bait. Other partners may have been found. No binding means not detected with the bait. Where a sequence is shown, tags or fusion partners need not be part of it.

By UniProt entry, the sequences of proteins in these tests, tags left out. Where a name states a change or a piece, a line headed by the entry shows the natural chain unless it says otherwise.
UniProt Q9KN44: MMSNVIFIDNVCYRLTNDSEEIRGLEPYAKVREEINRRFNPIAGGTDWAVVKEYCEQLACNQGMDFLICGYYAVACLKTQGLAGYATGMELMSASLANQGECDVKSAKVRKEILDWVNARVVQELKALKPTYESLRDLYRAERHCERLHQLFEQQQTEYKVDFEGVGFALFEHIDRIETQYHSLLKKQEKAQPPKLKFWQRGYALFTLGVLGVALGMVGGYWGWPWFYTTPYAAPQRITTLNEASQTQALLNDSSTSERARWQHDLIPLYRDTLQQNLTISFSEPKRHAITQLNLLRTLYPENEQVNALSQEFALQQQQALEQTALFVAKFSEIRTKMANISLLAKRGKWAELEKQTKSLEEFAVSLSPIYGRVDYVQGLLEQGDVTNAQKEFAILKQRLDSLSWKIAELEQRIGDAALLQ
UniProt Q9KN49: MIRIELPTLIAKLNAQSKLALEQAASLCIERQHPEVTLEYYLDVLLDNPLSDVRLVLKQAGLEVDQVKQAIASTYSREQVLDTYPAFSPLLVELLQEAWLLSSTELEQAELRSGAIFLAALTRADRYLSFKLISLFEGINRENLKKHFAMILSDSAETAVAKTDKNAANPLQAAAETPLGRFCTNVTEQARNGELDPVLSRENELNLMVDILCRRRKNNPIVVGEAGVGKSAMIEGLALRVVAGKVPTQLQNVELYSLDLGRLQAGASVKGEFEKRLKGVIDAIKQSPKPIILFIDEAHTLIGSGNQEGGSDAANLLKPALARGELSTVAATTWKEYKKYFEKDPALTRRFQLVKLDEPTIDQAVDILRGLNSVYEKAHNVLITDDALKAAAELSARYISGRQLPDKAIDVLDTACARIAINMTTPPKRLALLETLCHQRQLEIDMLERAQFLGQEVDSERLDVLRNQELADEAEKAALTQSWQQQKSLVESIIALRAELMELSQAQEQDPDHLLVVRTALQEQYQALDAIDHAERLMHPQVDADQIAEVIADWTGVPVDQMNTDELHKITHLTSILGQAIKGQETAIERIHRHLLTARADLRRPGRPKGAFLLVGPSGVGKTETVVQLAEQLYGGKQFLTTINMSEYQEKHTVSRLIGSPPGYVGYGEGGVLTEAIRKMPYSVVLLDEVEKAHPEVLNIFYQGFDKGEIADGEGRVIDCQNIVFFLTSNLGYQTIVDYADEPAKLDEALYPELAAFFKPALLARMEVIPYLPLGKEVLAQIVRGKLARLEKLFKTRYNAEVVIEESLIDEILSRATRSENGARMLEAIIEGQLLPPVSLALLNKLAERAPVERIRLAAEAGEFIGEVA

B1: Hcp, tested in the pull-down (protein, UniProt P72350 1-172)
chain: MPTPCYISIEGQTQGLITAGACTADSIGDSFVEGHEDEMLVQQFDHVVTVPTDPQSGQPSGQRVHKPFKFTVALNKAVPLLYNALSSGEKLKTVELKWYRTSIEGKQENFFTTKLENASIVDIHCEMPHCQDPAKSDFTQNVTVSLSYRKITWDHVNAGTSGSDDWRKPIEA

target: T1, TssAVC, hemagglutinin (HA)-tagged bait (Vibrio cholerae) (UniProt Q9KN46); assay: affinity purification with mass spectrometry
T1 sequence: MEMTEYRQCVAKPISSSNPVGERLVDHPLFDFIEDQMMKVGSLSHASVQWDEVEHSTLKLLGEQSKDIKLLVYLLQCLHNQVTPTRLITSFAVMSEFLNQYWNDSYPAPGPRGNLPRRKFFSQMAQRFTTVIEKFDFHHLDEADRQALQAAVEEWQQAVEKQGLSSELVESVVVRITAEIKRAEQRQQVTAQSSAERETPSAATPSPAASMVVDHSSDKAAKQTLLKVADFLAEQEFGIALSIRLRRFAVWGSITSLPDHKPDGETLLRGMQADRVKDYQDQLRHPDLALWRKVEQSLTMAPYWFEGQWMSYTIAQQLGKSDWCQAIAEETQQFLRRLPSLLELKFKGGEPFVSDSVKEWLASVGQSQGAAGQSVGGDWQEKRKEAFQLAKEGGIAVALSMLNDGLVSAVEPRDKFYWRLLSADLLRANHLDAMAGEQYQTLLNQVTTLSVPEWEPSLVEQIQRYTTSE

| Molecule | binding |
| --- | --- |
| TagAVC, found in the pull-down with TssAVC-HA (from UniProt Q9KN44) | binds |
| ClpV, found in the pull-downs (from UniProt Q9KN49) | binds |
| B1 | no binding |
